# Test results reported in the supplement of paper PMC6411743.
# ± gives the standard deviation of the averaged measurements. The list shows a part of the results.
# Key:
# Experiment in all cases: NP40-soluble protein abundance relative to vehicle (solubility fold change) (ratio); higher = more soluble protein in presence of GTP
# PCYOX1 = target: T1, PCYOX1 (UniProt Q9UHG3)
# T1 sequence (whole entry): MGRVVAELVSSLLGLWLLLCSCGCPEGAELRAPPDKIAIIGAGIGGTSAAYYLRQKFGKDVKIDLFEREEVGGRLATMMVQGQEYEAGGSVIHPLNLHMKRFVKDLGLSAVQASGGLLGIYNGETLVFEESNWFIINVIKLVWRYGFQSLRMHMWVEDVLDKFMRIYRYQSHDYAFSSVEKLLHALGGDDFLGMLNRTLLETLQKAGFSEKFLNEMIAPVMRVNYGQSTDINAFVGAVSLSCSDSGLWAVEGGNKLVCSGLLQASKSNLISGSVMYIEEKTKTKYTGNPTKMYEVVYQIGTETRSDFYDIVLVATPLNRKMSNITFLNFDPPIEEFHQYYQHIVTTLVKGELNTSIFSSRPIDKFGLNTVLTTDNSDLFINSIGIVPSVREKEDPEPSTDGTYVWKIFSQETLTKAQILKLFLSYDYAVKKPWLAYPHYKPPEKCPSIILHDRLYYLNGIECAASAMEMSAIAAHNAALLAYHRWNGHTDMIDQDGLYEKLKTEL
# How it was run: (§1)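 Jurkat crude lysate prepared with a Dounce homogeniser was treated at eight concentrations spanning 0.1 to 10 mM, 10 min at room temperature then 3 min at 37 °C. Solubilisation with 0.8% NP40 and benzonase and ultracentrifugation preceded TMT labelling of the supernatant for LC-MS/MS. Fold change against the detergent-processed vehicle was determined per replicate from vsn-normalised intensities, across three independent experiments.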
# SERGEF = target: T2, SERGEF (UniProt Q9UGK8)
# T2 sequence (whole entry): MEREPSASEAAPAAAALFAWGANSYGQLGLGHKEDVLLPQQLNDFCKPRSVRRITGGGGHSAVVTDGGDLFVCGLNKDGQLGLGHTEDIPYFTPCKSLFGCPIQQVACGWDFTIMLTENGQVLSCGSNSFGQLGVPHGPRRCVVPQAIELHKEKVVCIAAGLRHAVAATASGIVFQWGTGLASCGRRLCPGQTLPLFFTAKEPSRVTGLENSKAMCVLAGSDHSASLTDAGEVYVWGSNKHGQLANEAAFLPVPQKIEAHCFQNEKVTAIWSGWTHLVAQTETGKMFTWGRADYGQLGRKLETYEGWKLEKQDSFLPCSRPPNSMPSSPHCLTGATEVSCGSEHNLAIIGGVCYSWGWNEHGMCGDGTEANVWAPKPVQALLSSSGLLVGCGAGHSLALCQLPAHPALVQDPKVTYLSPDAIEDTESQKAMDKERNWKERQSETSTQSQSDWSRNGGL
# How it was run: as §1
# TFIP11 = target: T3, TFIP11 (UniProt Q9UBB9)
# T3 sequence (whole entry): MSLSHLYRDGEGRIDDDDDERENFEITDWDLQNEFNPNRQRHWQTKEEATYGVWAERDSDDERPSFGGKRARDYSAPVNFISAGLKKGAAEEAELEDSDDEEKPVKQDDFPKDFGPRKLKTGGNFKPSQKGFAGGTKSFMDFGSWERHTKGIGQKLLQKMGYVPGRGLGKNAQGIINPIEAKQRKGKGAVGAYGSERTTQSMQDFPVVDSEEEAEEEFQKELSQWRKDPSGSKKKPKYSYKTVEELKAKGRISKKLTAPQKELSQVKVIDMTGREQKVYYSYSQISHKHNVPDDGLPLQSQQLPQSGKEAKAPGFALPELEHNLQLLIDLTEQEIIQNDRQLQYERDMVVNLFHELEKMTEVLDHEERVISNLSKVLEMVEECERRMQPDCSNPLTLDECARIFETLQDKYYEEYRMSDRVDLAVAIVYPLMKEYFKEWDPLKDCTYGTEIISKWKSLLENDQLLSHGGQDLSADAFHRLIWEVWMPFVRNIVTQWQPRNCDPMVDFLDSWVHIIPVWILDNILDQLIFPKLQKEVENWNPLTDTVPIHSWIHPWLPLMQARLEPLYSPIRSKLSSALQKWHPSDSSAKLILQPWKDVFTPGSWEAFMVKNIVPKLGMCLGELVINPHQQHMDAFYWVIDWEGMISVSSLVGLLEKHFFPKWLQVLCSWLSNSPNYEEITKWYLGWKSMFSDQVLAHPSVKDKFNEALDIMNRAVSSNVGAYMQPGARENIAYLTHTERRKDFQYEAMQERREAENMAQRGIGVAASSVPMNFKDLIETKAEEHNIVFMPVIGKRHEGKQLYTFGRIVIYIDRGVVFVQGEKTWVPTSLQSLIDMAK
# How it was run: as §1
# [1] = target: T4, UniProt Q9NVE7 and related entries
# T4 sequence (whole entry): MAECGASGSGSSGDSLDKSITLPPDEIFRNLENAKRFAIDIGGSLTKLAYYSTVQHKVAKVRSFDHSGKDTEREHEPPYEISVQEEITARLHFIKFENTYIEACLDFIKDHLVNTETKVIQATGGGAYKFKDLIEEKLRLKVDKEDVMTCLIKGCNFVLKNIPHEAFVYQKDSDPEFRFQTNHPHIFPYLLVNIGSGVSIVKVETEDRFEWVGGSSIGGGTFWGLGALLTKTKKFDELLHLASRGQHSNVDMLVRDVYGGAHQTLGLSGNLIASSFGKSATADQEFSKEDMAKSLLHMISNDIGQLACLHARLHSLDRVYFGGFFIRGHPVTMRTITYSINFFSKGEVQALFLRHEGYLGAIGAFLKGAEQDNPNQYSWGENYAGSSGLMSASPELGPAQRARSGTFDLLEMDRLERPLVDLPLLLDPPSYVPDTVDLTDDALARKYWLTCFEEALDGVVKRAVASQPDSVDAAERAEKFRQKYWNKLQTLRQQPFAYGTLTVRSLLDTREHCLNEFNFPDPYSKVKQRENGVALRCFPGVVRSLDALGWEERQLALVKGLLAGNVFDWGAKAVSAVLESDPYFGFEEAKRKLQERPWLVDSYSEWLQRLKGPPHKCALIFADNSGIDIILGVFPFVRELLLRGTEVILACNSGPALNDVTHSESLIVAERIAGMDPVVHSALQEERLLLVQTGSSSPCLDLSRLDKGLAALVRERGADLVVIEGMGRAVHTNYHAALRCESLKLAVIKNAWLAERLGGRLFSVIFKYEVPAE
# How it was run: as §1
compound,measurement,setting,value
Nc1nc2c(ncn2[C@@H]2O[C@H](COP(=O)(O)OP(=O)(O)OP(=O)(O)O)[C@@H](O)[C@H]2O)c(=O)[nH]1 [guanosine triphosphate],NP40-soluble protein abundance,PCYOX1; concentration: 0.1mM,1.08 ± 0.054
same,NP40-soluble protein abundance,PCYOX1; concentration: 0.5mM,1.04 ± 0.077
same,NP40-soluble protein abundance,PCYOX1; concentration: 1mM,0.968 ± 0.059
same,NP40-soluble protein abundance,PCYOX1; concentration: 2mM,0.939 ± 0.058
same,NP40-soluble protein abundance,PCYOX1; concentration: 4mM,0.91 ± 0.06
same,NP40-soluble protein abundance,PCYOX1; concentration: 6mM,0.944 ± 0.09
same,NP40-soluble protein abundance,PCYOX1; concentration: 8mM,0.899 ± 0.078
same,NP40-soluble protein abundance,PCYOX1; concentration: 10mM,0.893 ± 0.12
same,NP40-soluble protein abundance,SERGEF; concentration: 0.1mM,1.04 ± 0.048
same,NP40-soluble protein abundance,SERGEF; concentration: 0.5mM,1.05 ± 0.078
same,NP40-soluble protein abundance,SERGEF; concentration: 1mM,0.999 ± 0.092
same,NP40-soluble protein abundance,SERGEF; concentration: 2mM,1.03 ± 0.11
same,NP40-soluble protein abundance,SERGEF; concentration: 4mM,0.954 ± 0.13
same,NP40-soluble protein abundance,SERGEF; concentration: 6mM,0.938 ± 0.11
same,NP40-soluble protein abundance,SERGEF; concentration: 8mM,0.953 ± 0.1
same,NP40-soluble protein abundance,SERGEF; concentration: 10mM,0.959 ± 0.18
same,NP40-soluble protein abundance,TFIP11; concentration: 0.1mM,1.04 ± 0.055
same,NP40-soluble protein abundance,TFIP11; concentration: 0.5mM,1.06 ± 0.07
same,NP40-soluble protein abundance,TFIP11; concentration: 1mM,1.07 ± 0.053
same,NP40-soluble protein abundance,TFIP11; concentration: 2mM,1.07 ± 0.071
same,NP40-soluble protein abundance,TFIP11; concentration: 4mM,1.06 ± 0.073
same,NP40-soluble protein abundance,TFIP11; concentration: 6mM,1.08 ± 0.065
same,NP40-soluble protein abundance,TFIP11; concentration: 8mM,1.14 ± 0.1
same,NP40-soluble protein abundance,TFIP11; concentration: 10mM,1.14 ± 0.11
same,NP40-soluble protein abundance,[1]; concentration: 0.1mM,1.11 ± 0.032
same,NP40-soluble protein abundance,[1]; concentration: 0.5mM,1.04 ± 0.05
same,NP40-soluble protein abundance,[1]; concentration: 1mM,1.01 ± 0.065
same,NP40-soluble protein abundance,[1]; concentration: 2mM,1.02 ± 0.027
same,NP40-soluble protein abundance,[1]; concentration: 4mM,0.972 ± 0.051
same,NP40-soluble protein abundance,[1]; concentration: 6mM,0.963 ± 0.037
same,NP40-soluble protein abundance,[1]; concentration: 8mM,0.956 ± 0.03
same,NP40-soluble protein abundance,[1]; concentration: 10mM,0.968 ± 0.075

# 2 records picked at random from those above:
compound,measurement,setting,value
Nc1nc2c(ncn2[C@@H]2O[C@H](COP(=O)(O)OP(=O)(O)OP(=O)(O)O)[C@@H](O)[C@H]2O)c(=O)[nH]1 [guanosine triphosphate],NP40-soluble protein abundance,SERGEF; concentration: 4mM,0.954 ± 0.13
same,NP40-soluble protein abundance,PCYOX1; concentration: 0.5mM,1.04 ± 0.077
